Results deposited as PubChem BioAssay AID686943 (Drosophila RNAi Screening Center, 2013).
Aim: 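Fly genes whose loss alters ERK activation after insulin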 (primary screen). Cell system: Drosophila S2R+ haemocyte-like cells expressing YFP-tagged ERK (Rolled). Reagent: long dsRNA against Drosophila genes. Challenge: insulin stimulation versus unstimulated cells; dose and duration not given. Read-out: 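Per-plate z-scores of phospho-ERK immunostaining normalised to YFP-tagged ERK, measured with and without insulin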. Direction: replicate 1, z-score of dpERK with insulin and replicate 2, z-score of dpERK with insulin: higher = more active ERK per ERK-YFP after insulin; replicate 1, z-score of dpERK under basal conditions: higher = more basal active ERK per ERK-YFP; replicate 1, z-score of ERK-YFP with insulin: higher = more YFP-tagged ERK signal.
The deposit covers about 23,000 reagents; below is a random part of those that have a named target and a result. 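Extra replicates exist only for a retested subset of genes; insulin dose and duration not given; both raised and lowered dpERK matter.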 A plus sign joins genes that one reagent is predicted to hit. The record does not give: the amount of reagent, the time to read-out.

no.	gene knocked down	amplicon	replicate 1, z-score of dpERK with insulin	replicate 2, z-score of dpERK with insulin	replicate 1, z-score of dpERK under basal conditions	replicate 1, z-score of ERK-YFP with insulin
1	RecQ4	DRSC11265	0.27	0.04	-0.96	-0.37
2	Ugt36E1	DRSC02599	0.73	-0.06	0.65	-0.35
3	CG30428	DRSC04041	-1.85	-0.39	-0.77	1.37
4	Cyp12a4	DRSC16620	0.25	0.38	-0.19	-0.35
5	Ranbp16 + Lcch3	DRSC20257	0.01	0.06	-0.04	0.38
6	Irbp18	DRSC10612	0.48	-0.05	-0.49	0.03
7	CG2955	DRSC00552	-0.57	-0.16	0.08	0.06
8	CG15578	DRSC18066	-0.79	-0.56	1.33	0.32
9	tadr	DRSC03177	-0.26	0.5	0.34	0.41
10	CG14401	DRSC02385	0.78	-0.48	1.5	0.23
11	CG14401	DRSC21710	0.61	1.88	0.6	-0.51
12	CG13365	DRSC17899	0.26	0.45	2.05	-0.1
13	Cndp2	DRSC04873	-0.06	-0.8	-0.32	0.2
14	side-V	DRSC04188	0.09	0.04	-0.77	-0.57
15	side-V	DRSC04189	-1.27	-1.02	0.17	0.78
16	side-V	DRSC22266	-1.85	-1.59	-0.16	0.12
17	CG8236	DRSC16399	-0.22	0.33	0.45	0.35
18	Tsp	DRSC02144	-0.24	-0.18	-0.22	0.1
19	Tsp	DRSC02145	0.37	0.42	0.2	0.44
20	CG15820	DRSC08480	0.29	0.16	0.05	0.29
21	Pp1-Y2	DRSC21608	-2.93	0.76	0.14	0.9
22	CG42266	DRSC21577	0.15	0.28	-0.92	-1.24
23	CG42266	DRSC21957	0.56	0.39	-0.16	0.11
24	lbk	DRSC07178	0.14	0.29	1.21	0.23

Continued (8 carried over from the part before).
no.	gene knocked down	amplicon	replicate 1, z-score of dpERK with insulin	replicate 2, z-score of dpERK with insulin	replicate 1, z-score of dpERK under basal conditions	replicate 1, z-score of ERK-YFP with insulin
17	CG8236	DRSC16399	-0.22	0.33	0.45	0.35
18	Tsp	DRSC02144	-0.24	-0.18	-0.22	0.1
19	Tsp	DRSC02145	0.37	0.42	0.2	0.44
20	CG15820	DRSC08480	0.29	0.16	0.05	0.29
21	Pp1-Y2	DRSC21608	-2.93	0.76	0.14	0.9
22	CG42266	DRSC21577	0.15	0.28	-0.92	-1.24
23	CG42266	DRSC21957	0.56	0.39	-0.16	0.11
24	lbk	DRSC07178	0.14	0.29	1.21	0.23
25	CG9646	DRSC07342	-0.1	0.75	0.48	0.07
26	CG18231	DRSC10307	0.73	-0.68	-0.31	0.17
27	CG6276	DRSC16007	0.59	0.4	-0.34	1.24
28	CG5418	DRSC02857	-0.18	0.42	1.25	0.15
29	Galphaq	DRSC07432	-0.01	0.6	0.28	0.58
30	CG12768	DRSC11680	-1.47	-0.67	0.64	1.13
31	CG15059	DRSC19633	-0.03	0.24	-0.45	0.11
32	mia	DRSC12137	-0.64	-0.23	-0.96	0.38
33	ND1 (retired record)	DRSC21273	0.21	0.81	1.13	-0.36
34	magu	DRSC06832	-0.04	0.42	0.26	0.45
35	mthl4	DRSC06998	0.2	-0.11	1.1	0.21
36	Tgt	DRSC00672	1.1	0.25	-0.63	-1.38
37	Rpn10	DRSC11876	-0.99	-3.11	-3.01	-1.3
38	Alg2	DRSC08298	-1.07	0.35	-0.1	2.1
39	GV1	DRSC08228	1.29	1.26	-0.75	-0.05
40	CG12112	DRSC17809	0.29	0.47	-0.6	-0.11
41	eRF1	DRSC11779	0.08	-0.02	-1.15	0.11
42	NdufV3	DRSC19423	0.61	0.31	-0.86	-0.06
43	Taf10b + Taf10	DRSC00793	0.54	1.98	-1.27	1.03
44	Mvd	DRSC20096	-0.57	-0.23	-0.31	-0.17
45	Vps4	DRSC19338	-2.89	-2.84	-1.64	0.03
46	DUBAI	DRSC07281	-0.21	-0.08	-0.47	-0.43
47	ro	DRSC17046	-1.1	-3.94	0.24	3.12
48	CG6839	DRSC10723	-0.2	-0.19	0.54	0.23
49	CG5334	DRSC19941	0.2	0.31	1.2	-0.23
50	CG6985	DRSC16164	-0.32	0.43	-0.07	0.35
51	CG34109	DRSC02169	1.09	0.15	-0.13	-0.2
52	CG34109	DRSC02224	-0.02	0.19	-0.76	0.59
53	CG34109	DRSC02225	0.46	-0.7	3.46	0.3
54	CG14464	DRSC07760	-0.87	-1.22	-1.76	2.05
55	CG43075	DRSC19074	-0.64	-0.45	0.55	0.08
56	Vang	DRSC07570	1.09	0.59	0.22	-0.11
57	CG8067	DRSC07065	0.31	0.33	-0.26	0.41
